The values that follow come from publication PMC11535509.

Protein sequences, listed by entry. Tags and fused reporters are not part of them. Residues count along the entry.
UniProt Q8NE86, residues 51-351: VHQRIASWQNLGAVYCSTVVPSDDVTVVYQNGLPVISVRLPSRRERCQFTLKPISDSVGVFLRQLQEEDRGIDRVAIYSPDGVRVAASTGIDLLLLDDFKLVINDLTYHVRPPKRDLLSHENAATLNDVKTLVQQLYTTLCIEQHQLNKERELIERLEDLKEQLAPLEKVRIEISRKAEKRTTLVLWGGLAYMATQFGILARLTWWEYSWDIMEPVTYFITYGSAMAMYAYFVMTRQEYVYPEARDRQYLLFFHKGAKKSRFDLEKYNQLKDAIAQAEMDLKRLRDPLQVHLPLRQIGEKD
UniProt Q9BPX6, residues 34-476: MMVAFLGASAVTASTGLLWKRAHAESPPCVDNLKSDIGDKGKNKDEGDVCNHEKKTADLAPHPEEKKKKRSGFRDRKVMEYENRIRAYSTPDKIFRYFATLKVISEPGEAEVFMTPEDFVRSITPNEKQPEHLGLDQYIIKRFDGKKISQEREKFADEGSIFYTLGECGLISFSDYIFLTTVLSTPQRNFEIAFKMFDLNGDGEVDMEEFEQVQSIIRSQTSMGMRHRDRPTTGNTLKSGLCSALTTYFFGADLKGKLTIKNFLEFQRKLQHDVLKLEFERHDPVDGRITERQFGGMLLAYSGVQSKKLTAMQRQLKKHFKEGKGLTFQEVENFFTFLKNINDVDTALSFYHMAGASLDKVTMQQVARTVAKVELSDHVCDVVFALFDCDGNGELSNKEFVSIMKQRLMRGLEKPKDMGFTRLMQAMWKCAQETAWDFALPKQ
UniProt P56378: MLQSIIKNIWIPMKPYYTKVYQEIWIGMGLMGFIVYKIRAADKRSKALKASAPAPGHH

Assay in all cases: affinity purification with mass spectrometry; tandem affinity purification (streptavidin resin, biotin elution, then Ni-NTA) of the StrepII-HA-His6-tagged bait (MCU, MCUB or EMRE) from 3% digitonin lysates of tetracycline-induced Flp-In T-REx HEK293 cells, resting conditions; label-free LC-MS/MS; parental line as control; preys filtered for mitochondrial proteins
The target of assay [1] is T1, MCUB fused at the C-terminus to a StrepII-HA-His6 tag (MCUB bait) (UniProt Q9NWR8).
T1 sequence: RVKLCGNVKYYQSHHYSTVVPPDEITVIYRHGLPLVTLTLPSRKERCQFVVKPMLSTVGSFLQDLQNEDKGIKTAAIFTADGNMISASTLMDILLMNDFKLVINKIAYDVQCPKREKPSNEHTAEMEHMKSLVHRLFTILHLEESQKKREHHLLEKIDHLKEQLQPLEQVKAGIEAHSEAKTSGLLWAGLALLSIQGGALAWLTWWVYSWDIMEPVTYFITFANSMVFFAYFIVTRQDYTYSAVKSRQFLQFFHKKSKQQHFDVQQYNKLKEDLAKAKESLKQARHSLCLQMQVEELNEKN

Assay [2] deals with MCU fused at the C-terminus to a StrepII-HA-His6 tag (MCU bait) (UniProt Q8NE86).
For assay [3], the target named is T2, EMRE fused at the C-terminus to a StrepII-HA-His6 tag (EMRE bait) (UniProt Q9H4I9).
T2 sequence: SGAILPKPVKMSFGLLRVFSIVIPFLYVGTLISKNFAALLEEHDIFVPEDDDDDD

Assay [4] has as its target MCU fused at the C-terminus to a StrepII-HA-His6 tag (MCU bait) (UniProt Q8NE86). This is another data set of the same source.
Assay [5] addresses T1, MCUB fused at the C-terminus to a StrepII-HA-His6 tag (MCUB bait). The source holds these as a separate data set.
Assay [6] concerns the target T3, MCUB fused at the C-terminus to a StrepII-HA-His6 tag (MCUB bait), Q9NWR8.
T3 chain: T1 sequence
The settings on record: remark: other sources report otherwise.

Where two headings read alike, the source gives them in different places. Results are given in words; binding and its absence hold for the method and conditions named. Binding seen in cells or lysates may run through a third protein. A yes stands for co-enrichment or nearness to the bait. Other partners may have been found. For part of these data: Where a sequence is shown, tags or fusion partners need not be part of it.

As for “MICU1 (Mitochondrial Calcium Uptake 1), endogenous (from UniProt Q9BPX6 34-476)”, the binding entry in assay [1] is on record as “binds”. Same read-out and setting: the same measure for “MCU (Mitochondrial Calcium Uniporter), endogenous (from UniProt Q8NE86 51-351)”: “binds”. For “J subunit of the ATP synthase complex (ATP5MPL) (from UniProt P56378 1-58)”, the binding entry in assay [2] is reported as “binds”.

B1: SLC25A25 (protein, UniProt Q6KCM7 1-469)
chain: MLCLCLYVPVIGEAQTEFQYFESKGLPAELKSIFKLSVFIPSQEFSTYRQWKQKIVQAGDKDLDGQLDFEEFVHYLQDHEKKLRLVFKSLDKKNDGRIDAQEIMQSLRDLGVKISEQQAEKILKSMDKNGTMTIDWNEWRDYHLLHPVENIPEIILYWKHSTIFDVGENLTVPDEFTVEERQTGMWWRHLVAGGGAGAVSRTCTAPLDRLKVLMQVHASRSNNMGIVGGFTQMIREGGARSLWRGNGINVLKIAPESAIKFMAYEQIKRLVGSDQETLRIHERLVAGSLAGAIAQSSIYPMEVLKTRMALRKTGQYSGMLDCARRILAREGVAAFYKGYVPNMLGIIPYAGIDLAVYETLKNAWLQHYAVNSADPGVFVLLACGTMSSTCGQLASYPLALVRTRMQAQASIEGAPEVTMSSLFKHILRTEGAFGLYRGLAPNFMKVIPAVSISYVVYENLKITLGVQSR
Turning to B1, the binding result in assay [3] and in assay [4] was “binds” in each case.

B2: EF-hand domain-containing protein D1 (EFHD1), endogenous (protein, UniProt Q9BUP0 1-239)
chain: MASEELACKLERRLRREEAEESGPQLAPLGAPAPEPKPEPEPPARAPTASADAELSAQLSRRLDINEGAARPRRCRVFNPYTEFPEFSRRLIKDLESMFKLYDAGRDGFIDLMELKLMMEKLGAPQTHLGLKSMIKEVDEDFDGKLSFREFLLIFHKAAAGELQEDSGLMALAKLSEIDVALEGVKGAKNFFEAKVQALSSASKFEAELKAEQDERKREEEERRLRQAAFQKLKANFNT
In the case of B2, the binding result in assay [3] and in assay [5] was “binds” each time.

B3: TMEM70 (protein, UniProt Q9BUB7 82-260)
chain: LNTPSDKSEDGRLIYTGNMARAVFGVKCFSYSTSLIGLTFLPYIFTQNNAISESVPLPIQIIFYGIMGSFTVITPVLLHFITKGYVIRLYHEATTDTYKAITYNAMLAETSTVFHQNDVKIPDAKHVFTTFYAKTKSLLVNPVLFPNREDYIHLMGYDKEEFILYMEETSEEKRHKDDK
Regarding B3, in assay [4], the binding result is listed as “binds”.

B4: MICU2, endogenous, Q8IYU8 23-434 (protein)
chain: AVSRQAVRSPGPLAAAVAGAALAGAGAAWHHSRVSVAARDGSFTVSAQKNVEHGIIYIGKPSLRKQRFMQFSSLEHEGEYYMTPRDFLFSVMFEQMERKTSVKKLTKKDIEDTLSGIQTAGCGSTFFRDLGDKGLISYTEYLFLLTILTKPHSGFHVAFKMLDTDGNEMIEKREFFKLQKIISKQDDLMTVKTNETGYQEAIVKEPEINTTLQMRFFGKRGQRKLHYKEFRRFMENLQTEIQEMEFLQFSKGLSFMRKEDFAEWLLFFTNTENKDIYWKNVREKLSAGESISLDEFKSFCHFTTHLEDFAIAMQMFSLAHRPVRLAEFKRAVKVATGQELSNNILDTVFKIFDLDGDECLSHEEFLGVLKNRMHRGLWVPQHQSIQEYWKCVKKESIKGVKEVWKQAGKGLF
Consider B4, for which the binding entry in assay [6] was “binds”.
